Experimental data from PubChem BioAssay AID330 (DTP/NCI, 2004).
The list is a part of this screen's results and no random one: it is rich in T/C values a quarter to a half above the control, in often repeated tests (any T/C) and in doses without a T/C. Further doses and runs are listed elsewhere. T/C gives the treated animals as a percentage of the vehicle group. Some doses have a count of surviving animals in place of a T/C: the source files T/C as zero there, which appears to mark a toxic dose or a test without result, not a measured value. Some survivor counts are full or nearly so, which does not show that the dose was tolerated: the source hardly ever lists a survival T/C far under the control, and the zero likely stands for such cases as well. Counts of survivors are from the toxicity check (mostly the fifth day) where no day follows; animals may have died later. Schedules are NCI's codes, taken here to give the interval after Q, in days (D) or hours (H), and the number of doses after X. Some entries hold several experiments; their values stand side by side, smallest first. For survival time, the PubChem record calls one and a half times the control and up active, and a quarter to a half above the control has no call in these data; cut-offs in other NCI protocols can differ. Some T/C values are followed by the survivors on the day toxicity was checked, most often the fifth; without a count, all were alive then.

Tested on: P388 leukemia ip, CD2F1 mice, survival T/C
Assay: NCI In Vivo Anticancer Drug Screen. Data for tumor model P388 Leukemia (intraperitoneal) in CD2F1 (CDF1) mice
Conditions: T/C endpoint: median survival time, higher T/C = longer survival
[1] = dose: 120.0 mg/kg/injection, schedule: Q01DX005 (ip), vehicle: Klucel (hydroxypropylcellulose) (HPC)
[2] = dose: 240.0 mg/kg/injection, schedule: Q01DX005 (ip), vehicle: Klucel (hydroxypropylcellulose) (HPC)
[3] = dose: 200.0 mg/kg/injection, schedule: Q01DX005 (ip), vehicle: saline with Tween-80
[4] = dose: 60.0 mg/kg/injection, schedule: Q01DX005 (ip), vehicle: saline with Tween-80
[5] = dose: 100.0 mg/kg/injection, schedule: Q01DX005 (ip), vehicle: saline with Tween-80
[6] = dose: 100.0 mg/kg/injection, schedule: Q01DX009 (ip), vehicle: saline
[7] = dose: 200.0 mg/kg/injection, schedule: Q01DX005 (ip), vehicle: Klucel (hydroxypropylcellulose) (HPC)
[8] = dose: 120.0 mg/kg/injection, schedule: Q01DX005 (ip), vehicle: saline with Tween-80
[9] = dose: 240.0 mg/kg/injection, schedule: Q01DX005 (ip), vehicle: saline with Tween-80
[10] = dose: 200.0 mg/kg/injection, schedule: Q04DX003 (ip), vehicle: saline with Tween-80

C=C(C)c1nc(N(C)C)nc(N(C)C)n1
survivor count [1]: 6 of 6 | survivor count [2]: 6 of 6

Cc1cccc(C)c1NC(=O)C1C(=O)C(=O)N(c2c(C)cccc2C)C1=O (centres undefined)
survivor count (dose: 200.0 mg/kg/injection, schedule: Q04DX002 (ip), vehicle: saline with Tween-80): 1 of 6 | survivor count (dose: 400.0 mg/kg/injection, schedule: Q04DX002 (ip), vehicle: saline with Tween-80): 3 of 6

S=C=NP1(N=C=S)=NP(N=C=S)(N=C=S)=NP(N=C=S)(N=C=S)=NP(N=C=S)(N=C=S)=N1 (centres undefined)
survivor count [3]: 4 of 6

COc1cccc2c1C(=O)c1c(O)c3c(c(O)c1C2=O)C[C@@](O)(C(C)=O)C[C@@H]3OC1CC(N(C)C)C(O)C(C)O1 (some centres undefined)
T/C (dose: 0.25 mg/kg/injection, schedule: Q01DX009 (ip), vehicle: water): 136 % of control | T/C (dose: 0.5 mg/kg/injection, schedule: Q01DX009 (ip), vehicle: water): 149 % of control | T/C (dose: 2.5 mg/kg/injection, schedule: Q01DX001 (ip), vehicle: water): 125 % of control | T/C (dose: 2.5 mg/kg/injection, schedule: Q04DX003 (ip), vehicle: water): 130 % of control | T/C (dose: 3.6 mg/kg/injection, schedule: Q04DX003 (ip), vehicle: water): 147 % of control | T/C (dose: 5.0 mg/kg/injection, schedule: Q01DX001 (ip), vehicle: water): 127 % of control | survivor count (dose: 8.0 mg/kg/injection, schedule: Q01DX009 (ip), vehicle: water): 6 of 6 | T/C (dose: 10.0 mg/kg/injection, schedule: Q04DX003 (ip), vehicle: water, evaluated on day 30): 145 % of control | T/C (dose: 10.0 mg/kg/injection, schedule: Q04DX003 (ip), vehicle: water, evaluated on day 45): 141 % of control | survivor count (dose: 16.0 mg/kg/injection, schedule: Q01DX009 (ip), vehicle: water): 6 of 6 | T/C (dose: 20.0 mg/kg/injection, schedule: Q04DX003 (ip), vehicle: water): 138 % of control [5 of 6 alive] | survivor count (dose: 40.0 mg/kg/injection, schedule: Q01DX001 (ip), vehicle: water): 6 of 6 | survivor count (dose: 80.0 mg/kg/injection, schedule: Q01DX001 (ip), vehicle: water): 4 of 6

COc1nc(NC2OC(CO)C(O)C(O)C2O)c(C(=O)CCl)c(=O)n1C (centres undefined)
survivor count [4]: 6 of 6

O=C(O)c1cc(-n2c(-c3ccccc3)cc3c2CCc2ccccc2-3)ccc1O
survivor count [3]: 4 of 6

CC1CN(Cc2cc(C(C)(C)c3cc(Cl)c(O)c(CN4CC(C)OC(C)C4)c3)cc(Cl)c2O)CC(C)O1 (centres undefined)
survivor count [5]: 6 of 6 | survivor count [3]: 6 of 6

CN(C)CCNc1ccc([N+](=O)[O-])c2sc3ccccc3c(=O)c12
T/C (dose: 25.0 mg/kg/injection, schedule: Q01DX009 (ip), vehicle: saline with Tween-80): 135 % of control | T/C (dose: 50.0 mg/kg/injection, schedule: Q01DX009 (ip), vehicle: saline with Tween-80): 136 and 143 % of control | survivor count (dose: 200.0 mg/kg/injection, schedule: Q01DX009 (ip), vehicle: saline with Tween-80): 6 of 6

CCC(=O)NC(Cc1ccccc1F)C(=O)O (centres undefined)
survivor count [6]: 5 of 6

COc1ccc2c(c1OC)C[N+]1(C)CCc3cc4c(cc3C1=C2C)OCO4 (centres undefined)
survivor count (dose: 12.5 mg/kg/injection, schedule: Q01DX005 (ip), vehicle: Klucel (hydroxypropylcellulose) (HPC)): 3 of 5 | survivor count (dose: 25.0 mg/kg/injection, schedule: Q01DX005 (ip), vehicle: Klucel (hydroxypropylcellulose) (HPC)): 0 of 5 | survivor count (dose: 50.0 mg/kg/injection, schedule: Q01DX005 (ip), vehicle: Klucel (hydroxypropylcellulose) (HPC)): 0 of 6 | survivor count (dose: 100.0 mg/kg/injection, schedule: Q01DX005 (ip), vehicle: Klucel (hydroxypropylcellulose) (HPC)): 0 of 6 | survivor count [7]: 0 of 6

CS(=O)(=O)c1nnc(-c2cccc[n+]2[O-])s1
survivor count [7]: 0 of 6

COc1ccc2c(N=[N+]=[N-])cc(C)nc2c1
survivor count [8]: 1 of 6 and 2 of 6 | survivor count [9]: 0 of 6

C=C1CC(C2OCOC3COCOC32)OC1=O (centres undefined)
survivor count [2]: 3 of 6

CC1=C(C#N)C(=O)N(C)C(=O)C1(Cl)Cl
survivor count (dose: 400.0 mg/kg/injection, schedule: Q04DX002 (ip), vehicle: Klucel (hydroxypropylcellulose) (HPC)): 1 of 6

CCC[CH2][Sn]([Cl])([Cl])[CH2]CCC.c1ccc(-c2nnc(-c3ccccn3)nc2-c2ccccc2)cc1
survivor count [2]: 2 of 6

O=C1c2cc3c(-c4ccccc4)oc(-c4ccccc4)c3cc2C(=O)c2c(O)ccc(O)c21
survivor count (dose: 50.0 mg/kg/injection, schedule: Q01DX005 (ip), vehicle: saline with Tween-80): 5 of 6 | survivor count [5]: 6 of 6

CCCCCCCCCCCCCCCCS(=O)(=O)N/N=c1\cc(-c2ccccc2Cl)c2ccccc2n1C
survivor count [6]: 5 of 6

COc1ccc2c(NCCCCCCNc3c4ccccc4nc4cc(OC)ccc34)c3ccccc3nc2c1
T/C (dose: 1.25 mg/kg/injection, schedule: Q01DX009 (ip), vehicle: other): 144 % of control | T/C (dose: 2.5 mg/kg/injection, schedule: Q01DX009 (ip), vehicle: other): 146 % of control | T/C (dose: 3.75 mg/kg/injection, schedule: Q01DX009 (ip), vehicle: other): 147 % of control | T/C (dose: 7.5 mg/kg/injection, schedule: Q01DX009 (ip), vehicle: other): 149 % of control | survivor count (dose: 15.0 mg/kg/injection, schedule: Q01DX009 (ip), vehicle: other): 4 of 6 | survivor count (dose: 20.0 mg/kg/injection, schedule: Q01DX009 (ip), vehicle: other): 0 of 6

O=NN(CCCl)C(=O)N[C@H]1CCCC[C@@H]1Cl
T/C (dose: 50.0 mg/kg/injection, schedule: Q04DX003 (ip), vehicle: saline with Tween-80): 131 % of control | survivor count (dose: 75.0 mg/kg/injection, schedule: Q04DX003 (ip), vehicle: saline with Tween-80): 6 of 6 | survivor count (dose: 100.0 mg/kg/injection, schedule: Q01DX009 (ip), vehicle: saline with Tween-80): 5 of 6 | survivor count [10]: 1 of 6

CCCN(CCC)C(C)C(O)c1cccc2ccccc12 (centres undefined)
survivor count (dose: 200.0 mg/kg/injection, schedule: Q01DX005 (ip), vehicle: saline): 0 of 5

OCC1CCN(CCOCc2ccccc2)C1 (centres undefined)
survivor count [9]: 3 of 6

Clc1ccc(C(c2ccccc2)N2CCNCC2)cc1 (centres undefined)
survivor count [10]: 3 of 6 | survivor count (dose: 400.0 mg/kg/injection, schedule: Q04DX003 (ip), vehicle: saline with Tween-80): 0 of 6

COC(=O)/C=c1/s/c(=C\C(C)=N)[nH]c1=O
survivor count [9]: 6 of 6

CC1=NCCN1CCNC(=O)c1ccc(C(=O)NCCN2CCN=C2C)cc1
survivor count (dose: 15.0 mg/kg/injection, schedule: Q01DX005 (ip), vehicle: saline with Tween-80): 0 of 6 | survivor count (dose: 30.0 mg/kg/injection, schedule: Q01DX005 (ip), vehicle: saline with Tween-80): 0 of 6 | survivor count [4]: 0 of 6 | survivor count [8]: 0 of 6 | survivor count [9]: 0 of 6

CC(=O)OCc1c(-c2ccccc2)c(=O)c1=O
survivor count [1]: 0 of 6 | survivor count [2]: 0 of 6

Nc1cc(Cl)ccc1-c1ccccc1
survivor count (dose: 400.0 mg/kg/injection, schedule: Q01DX009 (ip), vehicle: Klucel (hydroxypropylcellulose) (HPC)): 1 of 6

CCOC(=O)C1OC(C2(C)OC3(OC4(C=CC3O)OC(C(C)C(=O)C(C)C(O)C(C)CC(C)c3c(Cl)cc(C)c(O)c3C(=O)O)C(C)CC4C)C(C)C2OC)CC1O (centres undefined)
survivor count (dose: 5.0 mg/kg/injection, schedule: Q01DX005 (ip), vehicle: Klucel (hydroxypropylcellulose) (HPC)): 5 of 6 | survivor count (dose: 10.0 mg/kg/injection, schedule: Q01DX005 (ip), vehicle: Klucel (hydroxypropylcellulose) (HPC)): 0 of 6

Cn1c(=O)c2c(nc(NCC[N+](C)(C)Cc3ccc(Cl)cc3)n2C)n(C)c1=O
survivor count (dose: 50.0 mg/kg/injection, schedule: Q01DX009 (ip), vehicle: Klucel (hydroxypropylcellulose) (HPC)): 0 of 6 | survivor count (dose: 100.0 mg/kg/injection, schedule: Q01DX009 (ip), vehicle: Klucel (hydroxypropylcellulose) (HPC)): 0 of 6 | survivor count (dose: 200.0 mg/kg/injection, schedule: Q01DX009 (ip), vehicle: Klucel (hydroxypropylcellulose) (HPC)): 0 of 6

O=C(NO)Nc1cc(Cl)cc(Cl)c1
survivor count [9]: 1 of 6
